Measured values reported in the supplement of paper PMC10849652.
The list shows a part of the results.

Amino acid sequences for entries named in this document (tags omitted). A change or cut given only in a name is not applied to a line headed by its entry.
UniProt Q14116, whole entry, looked up: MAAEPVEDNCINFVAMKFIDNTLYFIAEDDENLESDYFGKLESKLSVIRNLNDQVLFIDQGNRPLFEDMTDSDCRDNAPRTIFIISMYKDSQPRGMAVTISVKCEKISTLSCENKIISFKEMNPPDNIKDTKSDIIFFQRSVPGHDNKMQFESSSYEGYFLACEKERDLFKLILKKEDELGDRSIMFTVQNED
UniProt P13598: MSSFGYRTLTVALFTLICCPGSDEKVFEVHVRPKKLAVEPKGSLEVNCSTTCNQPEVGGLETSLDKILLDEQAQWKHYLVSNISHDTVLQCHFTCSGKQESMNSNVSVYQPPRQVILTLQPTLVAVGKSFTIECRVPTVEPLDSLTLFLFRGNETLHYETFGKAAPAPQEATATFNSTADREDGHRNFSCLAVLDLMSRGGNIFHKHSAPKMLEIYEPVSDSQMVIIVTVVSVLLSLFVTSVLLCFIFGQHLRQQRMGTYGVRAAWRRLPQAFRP
UniProt Q9H0C8: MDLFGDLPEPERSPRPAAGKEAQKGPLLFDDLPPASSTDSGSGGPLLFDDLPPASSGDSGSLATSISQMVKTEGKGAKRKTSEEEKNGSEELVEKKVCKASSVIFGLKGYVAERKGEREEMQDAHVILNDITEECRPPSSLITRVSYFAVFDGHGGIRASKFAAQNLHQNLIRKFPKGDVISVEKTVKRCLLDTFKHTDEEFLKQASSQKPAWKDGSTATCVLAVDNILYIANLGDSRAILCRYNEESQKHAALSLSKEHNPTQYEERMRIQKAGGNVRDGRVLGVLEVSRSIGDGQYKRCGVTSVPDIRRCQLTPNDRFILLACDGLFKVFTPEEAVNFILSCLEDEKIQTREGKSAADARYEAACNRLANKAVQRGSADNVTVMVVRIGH
UniProt P80217: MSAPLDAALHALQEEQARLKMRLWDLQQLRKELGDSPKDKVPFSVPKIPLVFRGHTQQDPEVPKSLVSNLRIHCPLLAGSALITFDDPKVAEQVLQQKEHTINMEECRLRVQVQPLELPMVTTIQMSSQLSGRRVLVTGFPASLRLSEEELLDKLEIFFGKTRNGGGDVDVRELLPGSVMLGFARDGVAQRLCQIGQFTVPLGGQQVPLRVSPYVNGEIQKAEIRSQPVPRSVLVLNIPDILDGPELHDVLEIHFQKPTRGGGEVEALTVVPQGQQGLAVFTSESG
UniProt P38646: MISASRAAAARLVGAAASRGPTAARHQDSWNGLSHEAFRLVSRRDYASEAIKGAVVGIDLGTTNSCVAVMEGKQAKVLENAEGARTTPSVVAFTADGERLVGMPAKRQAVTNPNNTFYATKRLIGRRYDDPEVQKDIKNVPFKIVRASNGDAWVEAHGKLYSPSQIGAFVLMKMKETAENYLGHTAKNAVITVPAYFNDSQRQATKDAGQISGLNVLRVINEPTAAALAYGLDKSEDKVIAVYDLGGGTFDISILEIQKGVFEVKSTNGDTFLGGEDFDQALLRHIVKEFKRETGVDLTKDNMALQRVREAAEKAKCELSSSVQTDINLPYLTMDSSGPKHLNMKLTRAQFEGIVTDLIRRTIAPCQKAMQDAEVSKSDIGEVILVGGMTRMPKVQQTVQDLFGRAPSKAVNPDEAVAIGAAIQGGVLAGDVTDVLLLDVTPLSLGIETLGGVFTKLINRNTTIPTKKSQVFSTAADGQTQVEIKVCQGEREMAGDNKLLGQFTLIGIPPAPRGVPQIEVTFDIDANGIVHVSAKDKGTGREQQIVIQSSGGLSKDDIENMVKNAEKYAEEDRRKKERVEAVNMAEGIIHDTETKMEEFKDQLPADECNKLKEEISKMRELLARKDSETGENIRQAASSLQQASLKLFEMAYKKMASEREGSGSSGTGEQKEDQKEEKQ
UniProt Q9P2D0: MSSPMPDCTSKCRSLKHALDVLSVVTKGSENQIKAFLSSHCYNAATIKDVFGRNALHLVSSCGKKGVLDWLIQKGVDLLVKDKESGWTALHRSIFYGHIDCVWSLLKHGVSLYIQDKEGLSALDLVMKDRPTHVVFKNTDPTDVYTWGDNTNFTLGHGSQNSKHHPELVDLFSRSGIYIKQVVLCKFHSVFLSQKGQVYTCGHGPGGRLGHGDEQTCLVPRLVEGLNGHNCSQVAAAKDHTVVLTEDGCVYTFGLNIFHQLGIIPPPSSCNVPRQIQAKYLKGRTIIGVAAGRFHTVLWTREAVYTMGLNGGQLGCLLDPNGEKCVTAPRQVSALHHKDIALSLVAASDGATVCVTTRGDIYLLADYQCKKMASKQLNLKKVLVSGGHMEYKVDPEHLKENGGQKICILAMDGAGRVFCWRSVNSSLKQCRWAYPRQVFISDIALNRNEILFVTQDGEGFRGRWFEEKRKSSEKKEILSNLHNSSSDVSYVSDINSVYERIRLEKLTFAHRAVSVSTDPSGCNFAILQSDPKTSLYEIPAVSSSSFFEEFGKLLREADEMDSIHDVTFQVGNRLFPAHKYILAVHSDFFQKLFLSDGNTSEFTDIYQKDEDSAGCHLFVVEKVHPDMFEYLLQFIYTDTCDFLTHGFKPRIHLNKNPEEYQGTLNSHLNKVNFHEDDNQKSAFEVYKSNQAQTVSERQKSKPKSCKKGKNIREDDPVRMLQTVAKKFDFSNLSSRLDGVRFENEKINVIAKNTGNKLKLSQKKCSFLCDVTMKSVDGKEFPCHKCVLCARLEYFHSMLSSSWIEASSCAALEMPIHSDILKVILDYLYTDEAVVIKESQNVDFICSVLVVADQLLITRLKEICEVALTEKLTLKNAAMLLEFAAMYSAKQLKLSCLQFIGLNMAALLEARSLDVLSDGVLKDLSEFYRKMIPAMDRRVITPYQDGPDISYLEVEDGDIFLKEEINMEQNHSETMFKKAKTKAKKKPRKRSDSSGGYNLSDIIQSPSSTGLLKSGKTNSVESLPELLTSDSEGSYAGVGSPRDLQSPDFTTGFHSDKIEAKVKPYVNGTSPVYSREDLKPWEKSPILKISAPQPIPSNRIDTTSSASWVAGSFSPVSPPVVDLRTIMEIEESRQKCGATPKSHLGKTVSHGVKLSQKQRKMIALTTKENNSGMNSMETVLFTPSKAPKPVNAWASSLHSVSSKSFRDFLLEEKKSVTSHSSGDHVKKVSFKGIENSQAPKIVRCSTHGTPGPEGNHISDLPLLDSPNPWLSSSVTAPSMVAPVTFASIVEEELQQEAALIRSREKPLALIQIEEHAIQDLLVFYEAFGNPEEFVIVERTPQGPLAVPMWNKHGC
UniProt Q13907: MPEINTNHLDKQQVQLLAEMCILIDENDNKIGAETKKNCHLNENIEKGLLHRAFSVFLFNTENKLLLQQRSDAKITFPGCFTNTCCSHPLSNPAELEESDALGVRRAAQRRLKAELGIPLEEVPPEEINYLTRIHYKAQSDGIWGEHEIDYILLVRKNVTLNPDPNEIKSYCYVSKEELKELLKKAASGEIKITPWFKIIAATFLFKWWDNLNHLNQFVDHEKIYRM
UniProt O60921: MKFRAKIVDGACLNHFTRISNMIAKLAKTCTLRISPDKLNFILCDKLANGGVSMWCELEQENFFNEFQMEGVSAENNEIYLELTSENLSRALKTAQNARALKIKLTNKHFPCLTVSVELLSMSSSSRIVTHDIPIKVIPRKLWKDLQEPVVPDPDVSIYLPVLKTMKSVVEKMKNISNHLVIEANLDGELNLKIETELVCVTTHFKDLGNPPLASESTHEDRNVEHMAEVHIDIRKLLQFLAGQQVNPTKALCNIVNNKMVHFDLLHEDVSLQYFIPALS
UniProt Q12894: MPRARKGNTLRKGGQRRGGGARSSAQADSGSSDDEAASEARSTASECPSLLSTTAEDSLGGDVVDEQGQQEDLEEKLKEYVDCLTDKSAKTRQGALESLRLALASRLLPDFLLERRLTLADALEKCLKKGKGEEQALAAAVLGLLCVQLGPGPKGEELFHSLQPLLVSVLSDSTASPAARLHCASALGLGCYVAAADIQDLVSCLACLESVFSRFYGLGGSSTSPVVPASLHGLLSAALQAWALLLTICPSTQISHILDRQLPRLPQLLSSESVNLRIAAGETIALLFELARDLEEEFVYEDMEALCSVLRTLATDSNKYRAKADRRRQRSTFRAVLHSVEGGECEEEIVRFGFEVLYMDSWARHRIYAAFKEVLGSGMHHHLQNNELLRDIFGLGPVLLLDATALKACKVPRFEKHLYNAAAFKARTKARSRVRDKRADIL
UniProt P51553: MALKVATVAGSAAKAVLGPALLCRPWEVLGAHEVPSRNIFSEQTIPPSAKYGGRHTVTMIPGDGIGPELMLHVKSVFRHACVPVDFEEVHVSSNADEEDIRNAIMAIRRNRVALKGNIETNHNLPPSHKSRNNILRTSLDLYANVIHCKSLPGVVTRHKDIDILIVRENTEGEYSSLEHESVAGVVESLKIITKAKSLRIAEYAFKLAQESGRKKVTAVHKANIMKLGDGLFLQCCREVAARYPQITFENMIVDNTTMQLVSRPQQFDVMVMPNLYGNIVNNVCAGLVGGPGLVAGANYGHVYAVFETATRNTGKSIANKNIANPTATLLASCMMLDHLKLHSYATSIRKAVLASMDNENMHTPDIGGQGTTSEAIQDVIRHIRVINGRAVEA
UniProt Q9NV31: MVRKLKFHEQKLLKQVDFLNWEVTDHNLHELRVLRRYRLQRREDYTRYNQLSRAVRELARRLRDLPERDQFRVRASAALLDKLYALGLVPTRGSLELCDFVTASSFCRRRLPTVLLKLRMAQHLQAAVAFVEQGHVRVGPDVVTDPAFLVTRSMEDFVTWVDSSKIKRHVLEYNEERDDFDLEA
UniProt C9J406: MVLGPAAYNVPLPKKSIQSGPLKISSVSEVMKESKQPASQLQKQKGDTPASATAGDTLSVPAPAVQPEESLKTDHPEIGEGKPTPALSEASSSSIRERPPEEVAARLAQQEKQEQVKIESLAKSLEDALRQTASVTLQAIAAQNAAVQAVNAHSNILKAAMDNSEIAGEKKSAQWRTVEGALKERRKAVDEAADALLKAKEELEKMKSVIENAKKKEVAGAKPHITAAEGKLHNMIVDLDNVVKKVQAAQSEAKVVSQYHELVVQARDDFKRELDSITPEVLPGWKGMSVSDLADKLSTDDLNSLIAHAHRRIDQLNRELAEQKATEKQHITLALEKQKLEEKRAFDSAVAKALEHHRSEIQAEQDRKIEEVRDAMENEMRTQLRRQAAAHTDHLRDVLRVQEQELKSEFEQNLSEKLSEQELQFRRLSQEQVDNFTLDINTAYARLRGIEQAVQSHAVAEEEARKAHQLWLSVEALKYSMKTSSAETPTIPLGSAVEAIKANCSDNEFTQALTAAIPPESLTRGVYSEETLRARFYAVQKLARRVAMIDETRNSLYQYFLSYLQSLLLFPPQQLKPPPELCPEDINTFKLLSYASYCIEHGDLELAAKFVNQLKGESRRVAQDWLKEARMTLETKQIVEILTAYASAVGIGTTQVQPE
UniProt Q96CB8, whole entry, looked up: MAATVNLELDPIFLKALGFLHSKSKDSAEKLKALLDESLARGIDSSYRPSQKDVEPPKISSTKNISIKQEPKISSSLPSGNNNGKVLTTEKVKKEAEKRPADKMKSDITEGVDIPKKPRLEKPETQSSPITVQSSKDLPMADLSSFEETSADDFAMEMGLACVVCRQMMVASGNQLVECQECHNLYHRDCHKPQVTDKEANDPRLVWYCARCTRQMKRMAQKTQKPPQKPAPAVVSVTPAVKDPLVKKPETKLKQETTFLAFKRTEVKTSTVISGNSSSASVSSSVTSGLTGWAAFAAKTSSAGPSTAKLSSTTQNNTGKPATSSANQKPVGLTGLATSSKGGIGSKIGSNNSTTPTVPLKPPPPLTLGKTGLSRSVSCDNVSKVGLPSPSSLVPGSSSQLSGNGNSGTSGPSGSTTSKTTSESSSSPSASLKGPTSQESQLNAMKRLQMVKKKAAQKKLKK
UniProt Q9UK53: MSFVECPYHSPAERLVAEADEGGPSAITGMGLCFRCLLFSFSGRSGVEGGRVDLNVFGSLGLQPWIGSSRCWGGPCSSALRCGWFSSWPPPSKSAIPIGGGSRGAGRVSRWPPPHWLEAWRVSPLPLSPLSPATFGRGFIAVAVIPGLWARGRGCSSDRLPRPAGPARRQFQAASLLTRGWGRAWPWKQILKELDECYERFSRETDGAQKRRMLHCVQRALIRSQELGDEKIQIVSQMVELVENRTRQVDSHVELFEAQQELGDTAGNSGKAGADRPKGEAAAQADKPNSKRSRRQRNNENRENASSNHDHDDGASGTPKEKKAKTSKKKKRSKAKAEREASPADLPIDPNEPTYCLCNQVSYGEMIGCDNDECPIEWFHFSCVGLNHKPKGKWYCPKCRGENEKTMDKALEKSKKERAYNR
UniProt Q9P2X3: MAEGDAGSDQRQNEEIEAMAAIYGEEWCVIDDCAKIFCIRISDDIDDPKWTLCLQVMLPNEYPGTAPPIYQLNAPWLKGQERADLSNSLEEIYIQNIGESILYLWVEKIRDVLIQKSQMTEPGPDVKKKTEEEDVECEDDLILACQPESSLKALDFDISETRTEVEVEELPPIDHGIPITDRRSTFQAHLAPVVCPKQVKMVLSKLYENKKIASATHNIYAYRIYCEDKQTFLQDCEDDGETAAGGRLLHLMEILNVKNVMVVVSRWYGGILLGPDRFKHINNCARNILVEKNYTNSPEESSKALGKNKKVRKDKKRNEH

Columns and labels:
Assay in all cases: log2 fold change, soluble protein after heating vs DMSO (PISA); higher = thermal stabilisation; K562 lysate, 10 uM; active = over 0.2 and 3.5 SD of the protein, either way, in both replicates (recomputed)
[1] = compound: C1=CC=C(C=C1)[C@H](COC2=CC3=C(C=C2)NC(=O)N3)NC(=O)C4=CC=CN(C4=O)CC5=CC(=C(C=C5)F)F
Method in brief: (§1)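 Dounce homogenisation of K562 pellets in PBS pH 7.4 with 1 mM MgCl2 produced a crude extract, used at 1 mg/mL protein. Exposure to 10 μM compound lasted 30 min, and aliquots were then heated for 3 min across 48°C-58°C, pooled and brought to 0.5% NP-40 at 4°C. The supernatant after 21,000xg for 90 min was quantified by TMTpro 16plex LC-MS/MS with channel sums equalised. Duplicate values are given as log-two fold change in thermal stability relative to solvent controls.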

[2] = compound: CC1=C(SC2=C1C(=N[C@H](C3=NN=C(N32)C)CC(=O)N)C4=CC=C(C=C4)Cl)C
Method in brief: as §1

[3] = compound: CC1=C2C(=CC=C1)N=C(N(C2=O)C3=CC=CC=C3C)CN4C=NC5=C(N=CN=C54)N
Method in brief: as §1

[4] = compound: Cc1sc2c(c1C)C(c1ccc(Cl)cc1)=N[C@@H](CC(=O)OC(C)(C)C)c1nnc(C)n1-2
Method in brief: as §1

[5] = compound: c1ccc([C@@H]2C[C@H]2NC2CCNCC2)cc1
Method in brief: as §1

Measured: log2 fold change

IL18 (UniProt Q14116)
inactive: [1] 0.032 | [2] -0.06 | [3] 0.004 | [4] -0.034 | [5] -0.027

IDH3A (UniProt P50213)
inactive: [1] 0.003 | [2] -0.007 | [3] -0.041 | [4] 0.015 | [5] -0.021

IBA57 (UniProt Q5T440)
inactive: [1] -0.002 | [2] 0.028 | [3] -0.016 | [4] -0.046 | [5] 0.014

ICAM2 (UniProt P13598)
inactive: [1] 0.03 | [2] -0.025 | [3] -0.006 | [4] -0.022 | [5] 0.084

ILKAP (UniProt Q9H0C8)
inactive: [1] -0.004 | [2] -0.004 | [3] -0.013 | [4] 0.013 | [5] 0.009

HSPB11 (UniProt Q9Y547)
inactive: [1] -0.025 | [2] 0.018 | [3] 0 | [4] -0.047 | [5] 0.002

ING3 (UniProt Q9NXR8)
inactive: [1] 0.056 | [2] 0.043 | [3] 0.017 | [4] 0.013 | [5] 0.082

IFI35 isoform 2 (UniProt P80217)
inactive: [1] 0.006 | [2] 0.014 | [3] 0.004 | [4] 0.014 | [5] -0.052

IKBIP isoform 4 (UniProt Q70UQ0)
inactive: [1] 0.018 | [2] -0.012 | [3] 0.024 | [4] -0.022 | [5] -0.03

IKZF1 (UniProt Q13422)
inactive: [1] -0.064 | [2] -0.024 | [3] -0.05 | [4] -0.073 | [5] 0.138

HSPA8 (UniProt P11142)
inactive: [1] 0.002 | [2] -0.014 | [3] -0.004 | [4] -0.004 | [5] 0.006

IMPA2 (UniProt O14732)
inactive: [1] 0.035 | [2] 0.008 | [3] 0.056 | [4] -0.011 | [5] -0.075

ICAM1 (UniProt P05362)
inactive: [1] -0.031 | [2] 0.004 | [3] -0.011 | [4] -0.037 | [5] -0.028

HSPA8 (UniProt E9PK54)
inactive: [1] 0.065 | [2] -0.031 | [3] -0.031 | [4] -0.046 | [5] -0.125

HTATSF1 (UniProt O43719)
inactive: [1] 0.04 | [2] -0.028 | [3] 0.001 | [4] 0 | [5] -0.023

ILVBL (UniProt A1L0T0)
inactive: [1] 0.068 | [2] 0.068 | [3] 0.023 | [4] 0.029 | [5] -0.04

INPP1 (UniProt P49441)
inactive: [1] 0.062 | [2] 0.066 | [3] 0.051 | [4] 0.009 | [5] 0.015

IDH2 (UniProt P48735)
inactive: [1] -0.023 | [2] 0.009 | [3] 0.012 | [4] 0.053 | [5] 0.073

ICE2 (UniProt Q659A1)
inactive: [1] 0.003 | [2] 0.02 | [3] -0.017 | [4] -0.004 | [5] -0.012

HSPA9 (UniProt P38646)
inactive: [1] 0.007 | [2] -0.016 | [3] 0.023 | [4] 0 | [5] -0.009

IFRD1 (UniProt O00458)
inactive: [1] -0.06 | [2] -0.055 | [3] -0.096 | [4] -0.043 | [5] 0.072

IBTK (UniProt Q9P2D0)
inactive: [1] 0.001 | [2] -0.016 | [3] -0.026 | [4] 0.03 | [5] 0.055

IDI1 (UniProt Q13907)
inactive: [1] 0.018 | [2] -0.062 | [3] -0.015 | [4] 0.007 | [5] -0.081

HYPK (UniProt Q9NX55)
inactive: [1] -0.029 | [2] -0.091 | [3] -0.056 | [4] -0.025 | [5] 0.033

HUS1 (UniProt O60921)
inactive: [1] 0.015 | [2] 0.031 | [3] 0.022 | [4] -0.035 | [5] -0.003

IFRD2 isoform 2 (UniProt Q12894)
inactive: [1] 0.022 | [2] 0.144 | [3] 0.029 | [4] -0.105 | [5] -0.108

INTS1 (UniProt Q8N201)
inactive: [1] -0.017 | [2] 0.065 | [3] -0.045 | [4] 0.019 | [5] 0.004

4 consecutive entries from above, quoted:
ICAM2 (UniProt P13598)
inactive: [1] 0.03 | [2] -0.025 | [3] -0.006 | [4] -0.022 | [5] 0.084

ILKAP (UniProt Q9H0C8)
inactive: [1] -0.004 | [2] -0.004 | [3] -0.013 | [4] 0.013 | [5] 0.009

HSPB11 (UniProt Q9Y547)
inactive: [1] -0.025 | [2] 0.018 | [3] 0 | [4] -0.047 | [5] 0.002

ING3 (UniProt Q9NXR8)
inactive: [1] 0.056 | [2] 0.043 | [3] 0.017 | [4] 0.013 | [5] 0.082

(listing goes on)

ILRUN (UniProt Q9H6K1)
inactive: [1] 0.078 | [2] -0.021 | [3] 0.03 | [4] 0.009 | [5] 0.028

IGF2R (UniProt P11717)
inactive: [1] 0.029 | [2] -0.006 | [3] 0.018 | [4] -0.008 | [5] -0.053

IMPDH1 isoform 6 (UniProt P20839)
inactive: [1] -0.008 | [2] 0.025 | [3] -0.009 | [4] 0.053 | [5] -0.051

IDH3G (UniProt P51553)
inactive: [1] 0.018 | [2] 0.031 | [3] -0.031 | [4] 0.062 | [5] 0.008

INPP4A (UniProt Q96PE3)
inactive: [1] -0.079 | [2] 0.112 | [3] 0.027 | [4] 0.036 | [5] 0.017

HUWE1 (UniProt Q7Z6Z7)
inactive: [1] 0.009 | [2] 0.003 | [3] 0.015 | [4] -0.024 | [5] -0.004

IFI30 (UniProt P13284)
inactive: [1] -0.047 | [2] -0.053 | [3] 0.041 | [4] -0.092 | [5] 0.019

INPPL1 (UniProt O15357)
inactive: [1] 0.014 | [2] 0.029 | [3] -0.021 | [4] 0.012 | [5] 0.021

IMP3 (UniProt Q9NV31)
inactive: [1] -0.023 | [2] 0.045 | [3] 0.08 | [4] -0.007 | [5] -0.057

ID1 (UniProt P41134)
inactive: [1] 0.087 | [2] 0.02 | [3] 0.038 | [4] 0.051 | [5] 0.017

HSPBP1 (UniProt Q9NZL4)
inactive: [1] 0.026 | [2] 0.013 | [3] 0.034 | [4] 0.004 | [5] -0.017

IMMT (UniProt C9J406)
inactive: [1] -0.055 | [2] 0.041 | [3] 0.049 | [4] 0.077 | [5] -0.056

IFT74 (UniProt Q96LB3)
inactive: [1] 0.028 | [2] 0.019 | [3] 0.06 | [4] -0.07 | [5] -0.108

HSPG2 (UniProt P98160)
inactive: [1] -0.02 | [2] 0.053 | [3] 0.036 | [4] -0.034 | [5] -0.067

HSPA8 (UniProt E9PN89)
inactive: [1] 0.003 | [2] 0.044 | [4] -0.219 | [5] -0.393

HYOU1, A0A494C039
inactive: [1] 0.116 | [2] -0.026 | [4] -0.121 | [5] 0.042

INTS12 (UniProt Q96CB8)
inactive: [1] 0.025 | [2] 0.044 | [3] 0.029 | [4] -0.172 | [5] 0.032

ING1 (UniProt Q9UK53)
inactive: [1] 0.119 | [2] -0.207 | [4] -0.006 | [5] -0.04

HYOU1 (UniProt Q9Y4L1)
inactive: [1] 0.014 | [2] 0.015 | [3] 0.004 | [4] -0.009 | [5] 0.005

IMMP1L (UniProt Q96LU5)
inactive: [1] -0.081 | [2] -0.004 | [4] 0.052 | [5] 0.006

IFT81 (UniProt Q8WYA0)
inactive: [1] 0.011 | [2] 0.016 | [5] 0.106

HTD2 (UniProt P86397)
inactive: [1] 0.06 | [2] -0.048 | [3] 0.007 | [5] -0.107

ING5 (UniProt Q8WYH8)
inactive: [1] -0.056 | [2] 0.016 | [4] -0.212

HUWE1, A0A087X1S3
inactive: [1] 0.151 | [2] -0.088 | [4] 0.055 | [5] -0.187

IL17RA (UniProt Q96F46)
inactive: [1] -0.228 | [2] -0.044 | [4] 0.092 | [5] -0.174

INO80E (UniProt Q8NBZ0)
inactive: [1] 0.084 | [2] -0.022 | [4] -0.036 | [5] -0.093

IMPDH2 (UniProt H0Y4R1)
inactive: [1] -0.048 | [2] 0 | [3] -0.077 | [4] -0.018 | [5] -0.203

IMPACT (UniProt Q9P2X3)
inactive: [1] 0.093 | [2] -0.07 | [3] -0.18 | [4] -0.067 | [5] -0.13
